## Results of single-concentration screens

Protein sequences, listed by entry. Tags and fused reporters are not part of them. Residues count along the entry.
UniProt I6X8D2, whole entry: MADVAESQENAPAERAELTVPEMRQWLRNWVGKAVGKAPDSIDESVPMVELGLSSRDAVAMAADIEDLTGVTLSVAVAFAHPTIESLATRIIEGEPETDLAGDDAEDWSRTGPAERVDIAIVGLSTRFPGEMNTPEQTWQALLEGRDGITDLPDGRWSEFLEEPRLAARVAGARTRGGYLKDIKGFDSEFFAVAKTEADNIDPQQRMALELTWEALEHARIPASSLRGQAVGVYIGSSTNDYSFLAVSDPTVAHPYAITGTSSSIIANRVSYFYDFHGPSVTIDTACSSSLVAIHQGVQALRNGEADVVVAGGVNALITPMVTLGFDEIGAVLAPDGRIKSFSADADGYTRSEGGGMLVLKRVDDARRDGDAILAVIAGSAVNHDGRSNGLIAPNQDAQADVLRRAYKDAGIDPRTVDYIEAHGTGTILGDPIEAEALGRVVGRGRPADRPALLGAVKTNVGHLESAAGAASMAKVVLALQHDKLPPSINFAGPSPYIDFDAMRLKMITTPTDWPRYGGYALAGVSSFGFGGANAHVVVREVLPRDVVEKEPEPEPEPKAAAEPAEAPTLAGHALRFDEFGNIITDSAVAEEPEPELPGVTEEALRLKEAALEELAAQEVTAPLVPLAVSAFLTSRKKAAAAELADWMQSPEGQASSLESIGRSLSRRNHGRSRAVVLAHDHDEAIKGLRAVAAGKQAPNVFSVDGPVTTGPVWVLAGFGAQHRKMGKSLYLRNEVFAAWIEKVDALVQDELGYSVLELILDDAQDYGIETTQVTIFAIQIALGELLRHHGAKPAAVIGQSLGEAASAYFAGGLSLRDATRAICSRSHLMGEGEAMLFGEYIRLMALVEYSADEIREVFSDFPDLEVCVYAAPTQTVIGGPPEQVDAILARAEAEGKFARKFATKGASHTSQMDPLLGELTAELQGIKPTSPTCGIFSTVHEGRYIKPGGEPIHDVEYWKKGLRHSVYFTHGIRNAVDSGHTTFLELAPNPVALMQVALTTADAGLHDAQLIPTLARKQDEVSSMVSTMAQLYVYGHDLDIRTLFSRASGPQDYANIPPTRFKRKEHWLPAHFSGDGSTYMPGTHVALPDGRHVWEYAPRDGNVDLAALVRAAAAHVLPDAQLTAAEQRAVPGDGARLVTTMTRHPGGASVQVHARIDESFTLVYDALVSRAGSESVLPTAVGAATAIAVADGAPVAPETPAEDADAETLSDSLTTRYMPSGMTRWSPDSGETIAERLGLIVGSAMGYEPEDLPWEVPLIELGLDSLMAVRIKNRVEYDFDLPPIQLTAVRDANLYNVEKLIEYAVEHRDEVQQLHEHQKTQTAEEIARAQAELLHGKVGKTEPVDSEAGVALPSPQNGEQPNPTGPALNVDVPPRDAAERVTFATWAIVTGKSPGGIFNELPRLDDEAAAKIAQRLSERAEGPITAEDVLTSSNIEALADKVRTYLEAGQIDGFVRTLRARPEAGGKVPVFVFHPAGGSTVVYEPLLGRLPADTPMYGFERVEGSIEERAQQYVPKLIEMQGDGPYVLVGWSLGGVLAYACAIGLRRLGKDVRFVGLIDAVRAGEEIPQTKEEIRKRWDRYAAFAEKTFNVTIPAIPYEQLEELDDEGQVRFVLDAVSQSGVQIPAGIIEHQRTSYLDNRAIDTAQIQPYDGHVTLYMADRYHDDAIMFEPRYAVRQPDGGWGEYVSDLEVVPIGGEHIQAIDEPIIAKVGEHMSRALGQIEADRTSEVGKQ
UniProt P9WNZ1, whole entry: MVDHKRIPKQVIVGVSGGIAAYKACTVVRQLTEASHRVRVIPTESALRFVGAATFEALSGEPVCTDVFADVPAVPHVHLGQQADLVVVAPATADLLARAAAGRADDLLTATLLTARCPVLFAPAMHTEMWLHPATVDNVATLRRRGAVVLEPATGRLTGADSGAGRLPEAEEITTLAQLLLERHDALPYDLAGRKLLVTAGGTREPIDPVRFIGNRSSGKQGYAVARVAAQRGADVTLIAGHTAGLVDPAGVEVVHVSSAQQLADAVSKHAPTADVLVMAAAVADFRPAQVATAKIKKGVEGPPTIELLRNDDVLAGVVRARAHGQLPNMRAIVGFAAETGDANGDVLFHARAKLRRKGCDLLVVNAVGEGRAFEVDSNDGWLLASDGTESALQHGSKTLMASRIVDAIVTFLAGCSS
UniProt P9WFT3, whole entry: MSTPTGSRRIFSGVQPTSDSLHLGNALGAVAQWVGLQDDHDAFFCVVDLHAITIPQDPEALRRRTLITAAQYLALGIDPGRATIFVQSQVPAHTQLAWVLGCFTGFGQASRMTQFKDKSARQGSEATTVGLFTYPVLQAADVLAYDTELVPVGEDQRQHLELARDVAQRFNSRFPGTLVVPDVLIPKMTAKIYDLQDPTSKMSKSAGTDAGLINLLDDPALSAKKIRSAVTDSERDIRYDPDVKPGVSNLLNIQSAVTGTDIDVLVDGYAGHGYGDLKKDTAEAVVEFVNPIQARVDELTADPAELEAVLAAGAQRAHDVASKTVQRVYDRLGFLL
UniProt A4I591, 1-473: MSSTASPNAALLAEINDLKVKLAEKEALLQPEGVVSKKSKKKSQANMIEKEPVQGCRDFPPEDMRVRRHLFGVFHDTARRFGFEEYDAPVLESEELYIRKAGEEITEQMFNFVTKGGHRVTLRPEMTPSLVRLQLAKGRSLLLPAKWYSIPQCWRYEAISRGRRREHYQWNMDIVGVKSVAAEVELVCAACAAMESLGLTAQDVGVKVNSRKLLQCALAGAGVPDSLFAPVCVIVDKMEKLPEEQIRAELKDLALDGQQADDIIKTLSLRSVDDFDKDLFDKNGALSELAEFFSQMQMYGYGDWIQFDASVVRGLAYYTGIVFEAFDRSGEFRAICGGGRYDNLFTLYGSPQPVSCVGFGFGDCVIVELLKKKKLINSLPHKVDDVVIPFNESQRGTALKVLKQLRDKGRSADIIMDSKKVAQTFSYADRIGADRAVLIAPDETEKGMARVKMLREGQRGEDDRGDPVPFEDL
UniProt Q4DA54, 1-478: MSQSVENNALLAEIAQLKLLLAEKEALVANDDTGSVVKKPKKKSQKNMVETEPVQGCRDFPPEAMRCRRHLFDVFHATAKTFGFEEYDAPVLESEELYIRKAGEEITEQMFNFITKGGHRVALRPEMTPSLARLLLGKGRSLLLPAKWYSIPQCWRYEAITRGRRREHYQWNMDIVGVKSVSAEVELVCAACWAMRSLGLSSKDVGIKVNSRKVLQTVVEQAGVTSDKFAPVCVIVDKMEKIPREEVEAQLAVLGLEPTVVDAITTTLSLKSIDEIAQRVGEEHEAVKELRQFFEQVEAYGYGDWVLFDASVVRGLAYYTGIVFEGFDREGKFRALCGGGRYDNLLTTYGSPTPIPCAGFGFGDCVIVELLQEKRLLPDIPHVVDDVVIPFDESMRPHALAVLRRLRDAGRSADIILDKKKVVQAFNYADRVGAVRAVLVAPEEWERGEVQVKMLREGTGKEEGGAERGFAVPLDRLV

Data taken from ChEMBL document CHEMBL3988442, “University of Dundee, Small-Polar-MMV Screening Library” (2021).

Pks13 thioesterase: 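Polyketide synthase Pks13, Mycobacterium tuberculosis (UniProt I6X8D2). Enzyme assay of the thioesterase domain of polyketide synthase 13; the read-out is not stated. Tested at 30 µM. The record gives no direction; the compounds picked for IC50 retests had high values, so higher reads as stronger inhibition. Size under these conditions: about 67,000 compounds, about 300 of them at 50% or above in at least one test.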
Toxoplasma: 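Assay of Toxoplasma gondii numbers, read through their beta-galactosidase reporter with a colour substrate. Concentration: 10 µM. The record gives no direction; the compounds picked for IC50 retests had high values, so higher reads as fewer parasites. Of about 67,000 compounds tested this way, about 260 (0.38%) reached 50% or more in at least one test.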
CoaBC: 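Enzyme assay of CoaBC with a phosphate dye (Biomol Green) read at 650 nm. Target: Coenzyme A biosynthesis protein CoaBC, Mycobacterium tuberculosis (UniProt P9WNZ1). Compounds at 30 µM. Direction is inferred from only a few compounds that gave an IC50; most scored high, so higher reads as stronger inhibition. Most strong results did not repeat in a second test. Size under these conditions: about 67,000 compounds, about 40 of them at 50% or above in at least one test.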
MtTrpRS: 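Tryptophan-tRNA ligase, Mycobacterium tuberculosis (UniProt P9WFT3). Enzyme assay of tryptophanyl-tRNA synthetase; the read-out is not stated. Tested at 10 µM. Higher most likely means stronger inhibition; the record gives no direction and few retests gave an IC50. About 65,000 compounds were tested under these conditions; 0.098% (about 64) showed 50% or more at least once.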
LiHisRS: 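Enzyme assay of histidyl-tRNA synthetase; the read-out is not stated. Target: Histidine-tRNA ligase, Leishmania infantum (UniProt A4I591). Concentration: 30 µM. Direction is inferred from retests: higher values go with stronger inhibition. The assay is labelled LdHisRS but filed under L. infantum. About 69,000 compounds were tested under these conditions; 0.6% (about 410) showed 50% or more at least once.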
TcHisRS: 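Histidine-tRNA ligase, Trypanosoma cruzi CL Brener (UniProt Q4DA54). Enzyme assay of histidyl-tRNA synthetase; the read-out is not stated. Concentration: 30 µM. The record gives no direction; compounds that gave an IC50 in retests scored well above the rest, so higher reads as stronger inhibition. About 69,000 compounds were tested under these conditions; 0.045% (about 31) showed 50% or more at least once.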

Results are given as percent effect.
The controls that fix the scale are not given in the record; negative values are as filed.
Compounds were drawn at random from those tested, without regard to their results.
A dash means the value is not listed here; it may have been measured.

With O=C(O)C(F)(F)F.O=C(O)C(F)(F)F.[H][C@@]12CCCO[C@]1([H])[C@H](Nc1ccccn1)CN(Cc1cc(C)on1)C2 the screen gave Toxoplasma: 1.754%.
With O[C@H]1CN(Cc2ccnc(N3CCCC3)n2)CC[C@@]12CCCO2 the screen gave Pks13 thioesterase: 9.402%; CoaBC: -2.375%; MtTrpRS: -2.785%; LiHisRS: 9.859%; TcHisRS: 2.308%.
With CC(C)Oc1ccccc1NC(=O)N1CCC(n2cncn2)CC1 the screen gave Pks13 thioesterase: 2.823%; Toxoplasma: 2.135%; CoaBC: 8.82%; MtTrpRS: 2.792%; LiHisRS: 12.28%; TcHisRS: 7.163%.
With CN(C)C(C(=O)NCC1(Cn2cccn2)CC1)c1ccc(F)cc1 (centres unmarked) the screen gave Pks13 thioesterase: -42.17%; Toxoplasma: 2.157%; MtTrpRS: 0.5045%; LiHisRS: 23.94%; TcHisRS: 5.732%.
With [H][C@@]12CCCCCN(C)[C@@]1([H])[C@H](c1ccccc1)CN2S(=O)(=O)C(C)C the screen gave Toxoplasma: 10.27%.
With Cc1cccc(NC(=O)NCC2(N3CCOCC3)CCSC2)c1 (centres unmarked) the screen gave Pks13 thioesterase: 1.133%; Toxoplasma: -2.908%; CoaBC: 6.09%; MtTrpRS: 8.377%; LiHisRS: 15.07%; TcHisRS: -1.97%.
With Cc1nn(CCO)c(C)c1CNC1CCOc2ccccc21 (centres unmarked) the screen gave Pks13 thioesterase: -8.926%; CoaBC: -0.1248%; MtTrpRS: -1.564%; LiHisRS: 4.959%; TcHisRS: 6.122%.
With Cc1cc(C)c(C(=O)N2CCOCC2c2c(C)nn(C)c2C)o1 (centres unmarked) the screen gave Pks13 thioesterase: -2.338%; Toxoplasma: 4.852%; CoaBC: 4.54%; MtTrpRS: -0.8702%; LiHisRS: 17.31%; TcHisRS: 7.429%.
With Cc1ccc(F)cc1S(=O)(=O)NCc1cccnc1N(C)C the screen gave Pks13 thioesterase: -13.1%; Toxoplasma: -1.78%; CoaBC: 1.845%; MtTrpRS: -0.2201%; LiHisRS: 21.88%; TcHisRS: 4.943%.
With CC(C)Cc1nc(CS(=O)(=O)c2ccccc2)no1 the screen gave Pks13 thioesterase: -16.21%; Toxoplasma: -2.147%; CoaBC: 3.926%; MtTrpRS: -3.121%; LiHisRS: 10.96%; TcHisRS: 1.587%.
With CCC(=O)N1CCN(C(=O)c2ccc(OC)o2)[C@H]2CS(=O)(=O)C[C@H]21 the screen gave Pks13 thioesterase: -37.05%; CoaBC: -2.479%; MtTrpRS: -1.451%; LiHisRS: 13.33%; TcHisRS: 8.152%.
With O=C1CCCC2=C1C(c1ccccc1F)Nc1nonc1N2 (centres unmarked) the screen gave Pks13 thioesterase: -1.184%; Toxoplasma: 5.304%; CoaBC: 0%; MtTrpRS: -7.291%; LiHisRS: 16.67%; TcHisRS: 11.46%.
With COC(=O)CCC(=O)N1CCCC2(CCCN2Cc2cccc(F)c2)C1 (centres unmarked) the screen gave Pks13 thioesterase: -0.9118%; CoaBC: 5.446%; LiHisRS: 8.108%; TcHisRS: 2.21%.

The last 2 entries again:

structure,Pks13 thioesterase,Toxoplasma,CoaBC,MtTrpRS,LiHisRS,TcHisRS
O=C1CCCC2=C1C(c1ccccc1F)Nc1nonc1N2 (centres unmarked),-1.184%,5.304%,0%,-7.291%,16.67%,11.46%
COC(=O)CCC(=O)N1CCCC2(CCCN2Cc2cccc(F)c2)C1 (centres unmarked),-0.9118%,-,5.446%,-,8.108%,2.21%